PubChem BioAssay AID504808 – Drosophila RNAi Screening Center – 2011

Aim: 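Chromatin factors that keep E2F targets switched off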 (primary screen)
System: Drosophila S2 cells
Reagents: long dsRNA against Drosophila genes
Read-out: 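Firefly luciferase driven by E2F sites, normalised to Renilla luciferase on the same minimal promoter, measured by plate reader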
Scale: E2F firefly: higher = more E2F reporter activity; Renilla normaliser: higher = more normaliser reporter signal
Active means: 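a knock-down counted as active when the firefly/Renilla E2F signal rose above 50%, a threshold chosen arbitrarily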
The screen tested about 21,000 reagents; shown is a random part of those that have a named target and a result. In the full data, 18 (0.084%) got an active call. 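Raw counts without plate normalisation, one of two replicates; the ratio scores behind the calls were not deposited.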 Reagents against one gene are numbered here. Names joined by + are all predicted targets of the reagent. The record does not give: the amount of reagent, the time to read-out.

What did the screen give for SLC22A #1?
E2F firefly, rep 1: 1.33e5; Renilla normaliser, rep 1: 6952; outcome: inactive

What is on record for SLC22A #2?
E2F firefly, rep 1: 1.32e5; Renilla normaliser, rep 1: 6764; outcome: inactive

With PGRP-LD + Pmi #1, what was measured?
E2F firefly, rep 1: 77300; Renilla normaliser, rep 1: 3683; outcome: inactive

With PGRP-LD + Pmi #2, what does the deposit list?
E2F firefly, rep 1: 88533; Renilla normaliser, rep 1: 4204; outcome: inactive

With CG17186, what was measured?
E2F firefly, rep 1: 1.29e5; Renilla normaliser, rep 1: 7029; outcome: inactive

How did the screen score CG42331 #1?
E2F firefly, rep 1: 50510; Renilla normaliser, rep 1: 3790; outcome: inactive

For CG42331 #2, how do the results read?
E2F firefly, rep 1: 1.01e5; Renilla normaliser, rep 1: 4862; outcome: inactive

With JMJD4, how do the results read?
E2F firefly, rep 1: 80599; Renilla normaliser, rep 1: 3707; outcome: inactive

For CG14072, what was measured?
E2F firefly, rep 1: 1.64e5; Renilla normaliser, rep 1: 5961; outcome: inactive

How did the screen score Cmpk?
E2F firefly, rep 1: 1907; Renilla normaliser, rep 1: 1004; outcome: inactive

With CG1307, what was measured?
E2F firefly, rep 1: 68345; Renilla normaliser, rep 1: 3607; outcome: inactive

What did the screen give for CG33769?
E2F firefly, rep 1: 1.31e5; Renilla normaliser, rep 1: 6056; outcome: inactive

Which result is listed for CG9641?
E2F firefly, rep 1: 85301; Renilla normaliser, rep 1: 3630; outcome: inactive

With Syt14, how do the results read?
E2F firefly, rep 1: 1.41e5; Renilla normaliser, rep 1: 7394; outcome: inactive

Which result is listed for TrpRS-m?
E2F firefly, rep 1: 70034; Renilla normaliser, rep 1: 3961; outcome: inactive

With Dop1R2 #1, what does the deposit list?
E2F firefly, rep 1: 87823; Renilla normaliser, rep 1: 2445; outcome: inactive

For Dop1R2 #2, what does the deposit list?
E2F firefly, rep 1: 1.23e5; Renilla normaliser, rep 1: 6652; outcome: inactive

What did the screen give for Gr59e?
E2F firefly, rep 1: 1.04e5; Renilla normaliser, rep 1: 4596; outcome: inactive

With dmGlut, how do the results read?
E2F firefly, rep 1: 80695; Renilla normaliser, rep 1: 3845; outcome: inactive

What did the screen give for Arl2?
E2F firefly, rep 1: 1.34e5; Renilla normaliser, rep 1: 7254; outcome: inactive

With ATPCL, what was measured?
E2F firefly, rep 1: 1.64e5; Renilla normaliser, rep 1: 5783; outcome: inactive

What is on record for CG8366?
E2F firefly, rep 1: 1.44e5; Renilla normaliser, rep 1: 5312; outcome: inactive

How did the screen score Cpr62Bb?
E2F firefly, rep 1: 1.12e5; Renilla normaliser, rep 1: 5132; outcome: inactive

For CG2852, what was measured?
E2F firefly, rep 1: 97705; Renilla normaliser, rep 1: 4566; outcome: inactive

What did the screen give for insc?
E2F firefly, rep 1: 97344; Renilla normaliser, rep 1: 4721; outcome: inactive

For CG31128, what was measured?
E2F firefly, rep 1: 77566; Renilla normaliser, rep 1: 2050; outcome: inactive

How did the screen score Or82a?
E2F firefly, rep 1: 83140; Renilla normaliser, rep 1: 3546; outcome: inactive

For PPP4R2r, what does the deposit list?
E2F firefly, rep 1: 1.32e5; Renilla normaliser, rep 1: 6119; outcome: inactive

A portion taken from the entries so far:
CG8366 | E2F firefly, rep 1: 1.44e5; Renilla normaliser, rep 1: 5312; outcome: inactive
Cpr62Bb | E2F firefly, rep 1: 1.12e5; Renilla normaliser, rep 1: 5132; outcome: inactive
CG2852 | E2F firefly, rep 1: 97705; Renilla normaliser, rep 1: 4566; outcome: inactive
